PubChem BioAssay AID504791 | Drosophila RNAi Screening Center, 2011

Test: 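Genes whose knock-down strengthens or weakens small-RNA reporter silencing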 (primary screen)
Cells: Drosophila S2-derived reporter cells
Reagent: long dsRNA against Drosophila genes, about 150-250 ng dsRNA per well (siRNA assay); about 80-120 ng (miRNA assay)
Time to read-out: about 5 days (siRNA assay); about 4 days (miRNA assay)
Conditions: copper sulfate induction of reporters: 25 µM (siRNA assay); 200 mM stated (miRNA assay), 1-2 days before reading
Measurement: 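Per-well ratio of Renilla over firefly light, expressed relative to that plate's average ratio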
Call rule: 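First-pass picks had plate-scaled ratios over 1.5 for the siRNA assay, over 1.6 for the miRNA assay, or under 0.6; two distinct dsRNAs had to score alike on retest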
In all, the deposit lists about 23,000 reagents; shown is a random part of those with a known target gene and a result. Over the whole deposit, 199 (0.86%) are marked active. 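Plate-scaled ratios behind the calls are not deposited; printed light signals are raw; many rows marked increased or decreased are still called inactive.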 A number with no mark means an inactive call. Names joined by + are all predicted targets of the reagent. Reagent sequences are not shown. The record does not give: the direction of the score.

Knock-down of Cyp6a9 [DRSC07385] came out at: stable assay Renilla, run 1 (luminescence) = 7620; stable assay firefly, run 1 (luminescence) = 4.14e5.
For Coq9 [DRSC22913], the values are stable assay Renilla, run 1 (luminescence) = 2260; stable assay firefly, run 1 (luminescence) = 2.67e5.
THG [DRSC01896] scored stable assay Renilla, run 1 (luminescence) = 6556; stable assay firefly, run 1 (luminescence) = 3.06e5.
Silencing of CG9107 [DRSC03138] came out at: stable assay Renilla, run 1 (luminescence) = 27238; stable assay firefly, run 1 (luminescence) = 3.83e5.
Against nes [DRSC11375] the deposit lists stable assay Renilla, run 1 (luminescence) = 8132; stable assay firefly, run 1 (luminescence) = 4.59e5.
After knock-down of CG14395 [DRSC14852] the results were stable assay Renilla, run 1 (luminescence) = 6910; stable assay firefly, run 1 (luminescence) = 4.09e5.
Depletion of Nepl5 [DRSC03241] resulted in: stable assay Renilla, run 1 (luminescence) = 1.01e5; stable assay firefly, run 1 (luminescence) = 3.47e5.
Knock-down of CG32277 [DRSC08196] gave: stable assay Renilla, run 1 (luminescence) = 5811; stable assay firefly, run 1 (luminescence) = 3.15e5.
Depletion of CG5909 [DRSC15914] gave: stable assay Renilla, run 1 (luminescence) = 6671; stable assay firefly, run 1 (luminescence) = 3.39e5.
After knock-down of asRNA:Eig63F-2 + Eip63F-1 [DRSC21446] the results were stable assay Renilla, run 1 (luminescence) = 9274; stable assay firefly, run 1 (luminescence) = 4.12e5.
With knock-down of Dh31 [DRSC02196], the record shows stable assay Renilla, run 1 (luminescence) = 6320; stable assay firefly, run 1 (luminescence) = 4.04e5.
After knock-down of CG18518 [DRSC01509] the results were stable assay Renilla, run 1 (luminescence) = 5770; stable assay firefly, run 1 (luminescence) = 4.54e5.

An excerpt from the list above:
CG9107 [DRSC03138] | stable assay Renilla, run 1 (luminescence) = 27238; stable assay firefly, run 1 (luminescence) = 3.83e5
nes [DRSC11375] | stable assay Renilla, run 1 (luminescence) = 8132; stable assay firefly, run 1 (luminescence) = 4.59e5

Next reagents:
Against CG14561 [DRSC11722], the entry reads stable assay Renilla, run 1 (luminescence) = 7679; stable assay firefly, run 1 (luminescence) = 4.70e5.
Knock-down of yellow-d [DRSC04589] gave: stable assay Renilla, run 1 (luminescence) = 6659; stable assay firefly, run 1 (luminescence) = 3.64e5.
CoRest [DRSC19881] gave stable assay Renilla, run 1 (luminescence) = 4983; stable assay firefly, run 1 (luminescence) = 4.46e5.
CoRest [DRSC21626] scored stable assay Renilla, run 1 (luminescence) = 7446; stable assay firefly, run 1 (luminescence) = 4.28e5.
For CoRest [DRSC22305] the deposit lists stable assay Renilla, run 1 (luminescence) = 5991; stable assay firefly, run 1 (luminescence) = 4.11e5.
Against CG14106 [DRSC10109], the entry reads stable assay Renilla, run 1 (luminescence) = 6067; stable assay firefly, run 1 (luminescence) = 3.46e5.
CG42449 [DRSC18084] showed stable assay Renilla, run 1 (luminescence) = 4576; stable assay firefly, run 1 (luminescence) = 3.92e5.
